{"source": "paper PMC12062478", "about": "“Screening herbal and natural product libraries to aid discovery of novel allosteric modulators of human P2X7” (Purinergic Signalling, 2024)", "target": "T1, P2X7 (Homo sapiens, UniProt Q99572)", "T1 construct": "expressed in transfected cells", "T1 sequence (Q99572 1-595)": "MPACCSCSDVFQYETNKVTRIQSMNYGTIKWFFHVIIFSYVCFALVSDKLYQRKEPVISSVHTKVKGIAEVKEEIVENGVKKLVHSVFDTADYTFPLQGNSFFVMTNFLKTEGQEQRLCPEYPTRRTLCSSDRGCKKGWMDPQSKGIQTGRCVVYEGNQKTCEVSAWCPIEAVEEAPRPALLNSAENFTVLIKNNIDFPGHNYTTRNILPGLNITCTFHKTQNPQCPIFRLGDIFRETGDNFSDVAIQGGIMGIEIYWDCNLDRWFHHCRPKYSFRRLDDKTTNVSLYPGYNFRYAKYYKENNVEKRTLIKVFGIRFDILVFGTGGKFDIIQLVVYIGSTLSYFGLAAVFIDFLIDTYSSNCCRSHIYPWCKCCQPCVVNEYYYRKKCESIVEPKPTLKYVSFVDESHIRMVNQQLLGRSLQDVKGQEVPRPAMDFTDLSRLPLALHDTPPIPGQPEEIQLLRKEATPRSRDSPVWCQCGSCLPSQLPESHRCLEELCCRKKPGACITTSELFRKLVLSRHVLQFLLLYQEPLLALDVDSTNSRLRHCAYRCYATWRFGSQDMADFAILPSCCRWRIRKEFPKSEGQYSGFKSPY", "assay": "ATP-induced YO-PRO-1 dye uptake in HEK-hP2X7 cells", "format": "cell-based", "conditions": "screen for potential negative allosteric modulators; compound 10 µM injected 60 s before ATP", "protocol": "HEK-hP2X7 or HEK-hP2X4 cells were plated at 2.5 × 10^4 cells per well (100 µL volume) the day before experiments into poly-D-lysine (Merck Millipore) coated 96-well plates (NUNC, Fisher Scientific #167-008). The membrane impermeant dye YO-PRO-1 iodide (Life Technologies, Fisher Scientific) was used at a final concentration of 2 µM in low divalent buffer (145 mM NaCl, 5 mM KCl, 0.2 mM CaCl2, 13 mM glucose, 10 mM HEPES, pH 7.3, osm 300–310). Media were removed from the plate, and 90 µL of YO-PRO-1 buffer was added per well. Plates were warmed to 37 °C for 5 min before recording. Data was acquired on a Flexstation 3 plate reader (Molecular Devices) using excitation wavelength 490 nm, emission wavelength 520 nm, and six reads per well (PMT medium). […] […] Pipette height was set to 80 µL and the rate of injection was 4.\nYO-PRO-1 dye uptake assay data is plotted as a percentage of control where control responses are measured in the absence of plant extract. Cell viability data is plotted as a percentage of control or background-corrected fluorescence data. Concentration–response graphs were plotted using GraphPad Prism v6 with a non-linear regression fit (variable slope). […] Statistical differences were determined by one-way ANOVA statistical tests performed using GraphPad Prism v6 with Dunnett’s multiple comparison post hoc test. […]"}
{"compound": "COc1c(O)cc2c(c1OC)-c1ccc(OC)c(=O)cc1[C@@H](NC(C)=O)CC2", "note": "[3-desmethylcolchicine]", "values": [{"measurement": "P2X7 response (% of control)", "value": "49.33 % of control"}]}
